Values quoted from earlier work, collected in patent US20110177179A1, “PREPARATION OF BOTANICAL EXTRACTS CONTAINING ABSORBABLE COMPONENTS USING PHARMACEUTICAL PLATFORM TECHNOLOGY” (SINOVEDA CANADA, INC., priority 2010, published 2011).
At least one compound was matched to its structure with a doubt left.

Conditions: cited from earlier work

Structure (SMILES): C[C@@H]1O[C@@H](OC[C@H]2O[C@@H](Oc3c(-c4ccc(O)c(O)c4)oc4cc(O)cc(O)c4c3=O)[C@H](O)[C@@H](O)[C@@H]2O)[C@H](O)[C@H](O)[C@H]1O [Rutin]
- antioxidant activity in vitro: potent antioxidant
